The target in assay [1] is T1, SPECC1L (human (endogenous in U2OS)) (UniProt Q69YQ0).
T1 sequence: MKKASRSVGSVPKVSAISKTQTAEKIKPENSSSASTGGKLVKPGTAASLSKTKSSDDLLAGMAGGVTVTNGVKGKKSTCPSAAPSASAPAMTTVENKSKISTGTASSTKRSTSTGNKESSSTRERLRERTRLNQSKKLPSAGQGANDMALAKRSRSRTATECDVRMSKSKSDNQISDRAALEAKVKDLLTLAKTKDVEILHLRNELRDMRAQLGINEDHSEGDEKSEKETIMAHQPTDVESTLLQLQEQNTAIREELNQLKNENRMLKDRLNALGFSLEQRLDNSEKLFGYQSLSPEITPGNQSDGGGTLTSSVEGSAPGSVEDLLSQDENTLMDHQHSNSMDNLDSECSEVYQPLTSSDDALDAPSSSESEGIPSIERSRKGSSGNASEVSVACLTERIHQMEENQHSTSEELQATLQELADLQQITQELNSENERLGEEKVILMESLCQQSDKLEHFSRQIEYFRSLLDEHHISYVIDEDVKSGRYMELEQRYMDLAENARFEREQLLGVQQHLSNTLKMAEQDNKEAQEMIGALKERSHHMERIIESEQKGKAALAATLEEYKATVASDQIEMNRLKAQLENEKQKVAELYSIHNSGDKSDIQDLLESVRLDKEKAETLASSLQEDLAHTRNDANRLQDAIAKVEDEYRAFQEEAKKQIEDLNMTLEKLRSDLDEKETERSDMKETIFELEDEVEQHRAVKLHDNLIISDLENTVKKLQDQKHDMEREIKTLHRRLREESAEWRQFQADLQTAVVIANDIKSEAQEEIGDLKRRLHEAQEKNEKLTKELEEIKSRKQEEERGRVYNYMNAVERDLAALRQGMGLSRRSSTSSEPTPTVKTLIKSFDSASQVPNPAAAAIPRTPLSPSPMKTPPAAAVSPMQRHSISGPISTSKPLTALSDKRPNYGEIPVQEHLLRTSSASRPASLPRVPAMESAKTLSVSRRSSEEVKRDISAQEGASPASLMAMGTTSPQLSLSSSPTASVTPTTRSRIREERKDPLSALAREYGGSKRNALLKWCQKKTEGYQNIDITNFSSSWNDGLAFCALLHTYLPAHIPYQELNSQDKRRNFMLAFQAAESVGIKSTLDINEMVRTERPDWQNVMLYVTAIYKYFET
The assay can be described thus: co-IP; U2OS cell lysate immunoprecipitated with anti-SPECC1L antibodies; western blot for E-cadherin. In general terms: In western blotting, separated proteins are transferred to a membrane and probed.

In assay [2] the target is T2, TWIST1 (mouse (endogenous in embryonic mid and hindbrain tissue)) (UniProt P26687).
T2 sequence: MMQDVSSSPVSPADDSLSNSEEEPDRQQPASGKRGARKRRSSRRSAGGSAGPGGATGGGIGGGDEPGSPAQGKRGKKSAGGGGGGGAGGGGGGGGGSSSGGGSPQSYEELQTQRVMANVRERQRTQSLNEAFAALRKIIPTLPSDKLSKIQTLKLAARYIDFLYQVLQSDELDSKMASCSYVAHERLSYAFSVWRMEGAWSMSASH
The assay can be described thus: co-IP; cytosolic fraction of protein extracted from mouse embryonic hindbrain tissue (E8.5-E9.0; methods say E8.5 and E9.5); cytoplasmic buffer 50 mM Tris-HCl pH 8, 137.5 mM NaCl, 0.05% Triton X-100, 10% glycerol, 5 mM EDTA; anti-TWIST1 antibodies, Protein A/G magnetic beads; western blot.

No constants are given. Whether binding was seen depends on the method and setting. In cells and extracts the contact can be indirect. Binding calls can cover weak binding; strength is not graded here.

Turning to E-cadherin (human (endogenous in U2OS)), in assay [1], the binding result is “binds”.
Take δ-catenin: in assay [2], the binding result is reported as “binds”.

The record behind these values is paper PMC9440756.
